Source: paper PMC11724288
No constants are given. Whether binding was seen depends on the method and setting. Some entries that bind do so weakly or less than the wild type.

What was measured:
Assay in all cases: cryo-EM structure; TFIIICΔtail with 85-bp or 120-bp tRNA^His DNA; 20 mM HEPES pH 8.0, 2 mM MgCl2, 5 mM DTT, 75-200 mM KCl (datasets 1-5); separate reconstructions of τA–DNA (3.65 Å) and τB–DNA (2.46 Å); both purified
[1] = target: T1, τ55 subunit of S. cerevisiae TFIIIC (S. cerevisiae) (UniProt Q12415)
T1 sequence: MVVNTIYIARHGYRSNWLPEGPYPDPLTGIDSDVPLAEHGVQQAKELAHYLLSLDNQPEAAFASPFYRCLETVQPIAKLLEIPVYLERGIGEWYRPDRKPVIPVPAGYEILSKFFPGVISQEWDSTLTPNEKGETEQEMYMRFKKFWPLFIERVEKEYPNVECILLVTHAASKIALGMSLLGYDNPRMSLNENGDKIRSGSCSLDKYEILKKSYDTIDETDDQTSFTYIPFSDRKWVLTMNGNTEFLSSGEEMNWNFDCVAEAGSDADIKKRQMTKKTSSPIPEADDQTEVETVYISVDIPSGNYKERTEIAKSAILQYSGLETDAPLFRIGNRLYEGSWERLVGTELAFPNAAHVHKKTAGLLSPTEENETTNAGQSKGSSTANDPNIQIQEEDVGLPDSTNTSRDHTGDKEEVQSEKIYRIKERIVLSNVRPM

[2] = target: T2, τ131 subunit of S. cerevisiae TFIIIC (S. cerevisiae) (UniProt P33339)
T2 sequence: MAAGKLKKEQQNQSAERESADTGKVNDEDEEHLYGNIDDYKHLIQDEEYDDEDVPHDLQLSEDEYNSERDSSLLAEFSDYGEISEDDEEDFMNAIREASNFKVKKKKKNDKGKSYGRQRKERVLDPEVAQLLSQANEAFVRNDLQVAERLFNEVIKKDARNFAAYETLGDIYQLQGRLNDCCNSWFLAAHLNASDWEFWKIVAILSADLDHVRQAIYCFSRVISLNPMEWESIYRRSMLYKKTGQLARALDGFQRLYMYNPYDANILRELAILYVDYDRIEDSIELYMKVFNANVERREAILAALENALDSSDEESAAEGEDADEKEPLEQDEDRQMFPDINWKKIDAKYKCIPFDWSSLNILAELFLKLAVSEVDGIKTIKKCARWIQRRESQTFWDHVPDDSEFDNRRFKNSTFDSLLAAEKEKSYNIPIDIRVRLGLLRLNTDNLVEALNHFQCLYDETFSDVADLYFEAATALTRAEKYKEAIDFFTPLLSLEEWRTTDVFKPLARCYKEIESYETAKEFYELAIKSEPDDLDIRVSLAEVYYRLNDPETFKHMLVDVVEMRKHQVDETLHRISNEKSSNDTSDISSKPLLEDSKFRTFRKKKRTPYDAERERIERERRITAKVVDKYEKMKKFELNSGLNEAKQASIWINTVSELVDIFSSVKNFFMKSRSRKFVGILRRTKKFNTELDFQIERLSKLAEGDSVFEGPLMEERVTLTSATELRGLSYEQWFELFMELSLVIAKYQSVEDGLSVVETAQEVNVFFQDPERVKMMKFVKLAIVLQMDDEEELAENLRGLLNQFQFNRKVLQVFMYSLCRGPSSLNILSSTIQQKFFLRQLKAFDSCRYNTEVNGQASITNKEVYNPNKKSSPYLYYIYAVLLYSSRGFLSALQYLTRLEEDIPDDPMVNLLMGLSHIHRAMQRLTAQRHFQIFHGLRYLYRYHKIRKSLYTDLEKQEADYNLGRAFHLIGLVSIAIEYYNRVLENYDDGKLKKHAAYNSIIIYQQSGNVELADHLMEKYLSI

[3] = target: T3, τ91 subunit of S. cerevisiae TFIIIC (S. cerevisiae) (UniProt Q06339)
T3 sequence: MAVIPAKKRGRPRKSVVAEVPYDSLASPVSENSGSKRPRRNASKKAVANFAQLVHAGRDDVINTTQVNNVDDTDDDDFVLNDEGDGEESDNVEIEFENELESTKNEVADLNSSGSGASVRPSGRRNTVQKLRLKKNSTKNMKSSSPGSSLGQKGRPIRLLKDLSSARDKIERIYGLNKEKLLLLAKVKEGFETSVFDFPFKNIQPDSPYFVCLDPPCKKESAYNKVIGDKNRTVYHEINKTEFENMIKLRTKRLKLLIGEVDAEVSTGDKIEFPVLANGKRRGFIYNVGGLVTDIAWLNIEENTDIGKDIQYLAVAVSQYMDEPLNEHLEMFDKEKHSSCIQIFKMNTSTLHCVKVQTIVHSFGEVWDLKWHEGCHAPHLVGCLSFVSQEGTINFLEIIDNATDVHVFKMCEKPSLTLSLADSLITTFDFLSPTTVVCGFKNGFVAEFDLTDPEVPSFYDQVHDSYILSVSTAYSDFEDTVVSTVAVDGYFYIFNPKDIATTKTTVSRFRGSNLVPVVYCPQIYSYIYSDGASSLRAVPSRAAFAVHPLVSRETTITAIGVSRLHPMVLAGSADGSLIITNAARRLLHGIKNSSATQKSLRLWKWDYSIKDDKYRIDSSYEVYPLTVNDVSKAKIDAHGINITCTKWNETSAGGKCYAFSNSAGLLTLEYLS

Measured: binding

B1: τ138 subunit of S. cerevisiae TFIIIC (protein, UniProt P34111 1-1160)
chain: MVLTIYPDELVQIVSDKIASNKGKITLNQLWDISGKYFDLSDKKVKQFVLSCVILKKDIEVYCDGAITTKNVTDIIGDANHSYSVGITEDSLWTLLTGYTKKESTIGNSAFELLLEVAKSGEKGINTMDLAQVTGQDPRSVTGRIKKINHLLTSSQLIYKGHVVKQLKLKKFSHDGVDSNPYINIRDHLATIVEVVKRSKNGIRQIIDLKRELKFDKEKRLSKAFIAAIAWLDEKEYLKKVLVVSPKNPAIKIRCVKYVKDIPDSKGSPSFEYDSNSADEDSVSDSKAAFEDEDLVEGLDNFNATDLLQNQGLVMEEKEDAVKNEVLLNRFYPLQNQTYDIADKSGLKGISTMDVVNRITGKEFQRAFTKSSEYYLESVDKQKENTGGYRLFRIYDFEGKKKFFRLFTAQNFQKLTNAEDEISVPKGFDELGKSRTDLKTLNEDNFVALNNTVRFTTDSDGQDIFFWHGELKIPPNSKKTPNKNKRKRQVKNSTNASVAGNISNPKRIKLEQHVSTAQEPKSAEDSPSSNGGTVVKGKVVNFGGFSARSLRSLQRQRAILKVMNTIGGVAYLREQFYESVSKYMGSTTTLDKKTVRGDVDLMVESEKLGARTEPVSGRKIIFLPTVGEDAIQRYILKEKDSKKATFTDVIHDTEIYFFDQTEKNRFHRGKKSVERIRKFQNRQKNAKIKASDDAISKKSTSVNVSDGKIKRRDKKVSAGRTTVVVENTKEDKTVYHAGTKDGVQALIRAVVVTKSIKNEIMWDKITKLFPNNSLDNLKKKWTARRVRMGHSGWRAYVDKWKKMLVLAIKSEKISLRDVEELDLIKLLDIWTSFDEKEIKRPLFLYKNYEENRKKFTLVRDDTLTHSGNDLAMSSMIQREISSLKKTYTRKISASTKDLSKSQSDDYIRTVIRSILIESPSTTRNEIEALKNVGNESIDNVIMDMAKEKQIYLHGSKLECTDTLPDILENRGNYKDFGVAFQYRCKVNELLEAGNAIVINQEPSDISSWVLIDLISGELLNMDVIPMVRNVRPLTYTSRRFEIRTLTPPLIIYANSQTKLNTARKSAVKVPLGKPFSRLWVNGSGSIRPNIWKQVVTMVVNEIIFHPGITLSRLQSRCREVLSLHEISEICKWLLERQVLITTDFDGYWVNHNWYSIYEST
binds: all assays above
